The values below come from PMC12378768.

These are yes or no findings as the source states them, for the method shown. Binding seen in cells or lysates may run through a third protein. A result given as binding can be weak or reduced; the word gives no strength.

The target in the test is T1, BTB region of KCTD10 (truncated KCTD10 construct) (UniProt Q9H3F6).
T1 sequence: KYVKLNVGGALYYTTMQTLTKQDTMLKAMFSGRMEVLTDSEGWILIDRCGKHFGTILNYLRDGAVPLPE
Put plainly: co-IP; cells transfected with 5 μg KCTD10 and β-catenin (full length or truncated), lysed after 30 h; immunoprecipitation with anti-Myc-tag or anti-HA-tag antibody and protein A/G beads, detection by HA-tag or Myc-tag.

Take “Armadillo repeat region (1–9) of β-catenin (deletion construct) (domain or fragment)”: the binding entry is “binds”.
